Laboratory results published in patent US20190030139A1, “USP10 MODULATION OF AMPK AND MTOR” (MAYO FOUNDATION FOR MEDICAL EDUCATION AND RESEARCH, priority 2016, published 2019).
Results are given in words; binding and its absence hold for the method and conditions named. In cells and extracts the contact can be indirect. Some entries that bind do so weakly or less than the wild type.

Chains of the proteins cited; added tags and fusions are not shown. Lines headed by an entry give the natural chain unless they say otherwise; changes in a name come on top.
UniProt P54646: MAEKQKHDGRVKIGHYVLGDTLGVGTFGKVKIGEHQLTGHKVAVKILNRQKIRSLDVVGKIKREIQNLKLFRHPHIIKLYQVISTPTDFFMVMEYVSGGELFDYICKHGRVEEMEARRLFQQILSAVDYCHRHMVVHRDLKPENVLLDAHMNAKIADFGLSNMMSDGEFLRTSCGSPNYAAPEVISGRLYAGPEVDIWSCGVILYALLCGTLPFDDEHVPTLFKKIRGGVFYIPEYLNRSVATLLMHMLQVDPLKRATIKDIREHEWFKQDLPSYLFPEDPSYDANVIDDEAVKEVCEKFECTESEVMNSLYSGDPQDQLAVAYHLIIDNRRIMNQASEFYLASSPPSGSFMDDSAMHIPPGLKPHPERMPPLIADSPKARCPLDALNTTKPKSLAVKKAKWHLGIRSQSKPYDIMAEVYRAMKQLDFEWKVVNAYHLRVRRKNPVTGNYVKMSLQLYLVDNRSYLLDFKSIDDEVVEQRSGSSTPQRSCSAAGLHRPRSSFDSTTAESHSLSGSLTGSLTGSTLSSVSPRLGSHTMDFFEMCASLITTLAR
UniProt Q13131: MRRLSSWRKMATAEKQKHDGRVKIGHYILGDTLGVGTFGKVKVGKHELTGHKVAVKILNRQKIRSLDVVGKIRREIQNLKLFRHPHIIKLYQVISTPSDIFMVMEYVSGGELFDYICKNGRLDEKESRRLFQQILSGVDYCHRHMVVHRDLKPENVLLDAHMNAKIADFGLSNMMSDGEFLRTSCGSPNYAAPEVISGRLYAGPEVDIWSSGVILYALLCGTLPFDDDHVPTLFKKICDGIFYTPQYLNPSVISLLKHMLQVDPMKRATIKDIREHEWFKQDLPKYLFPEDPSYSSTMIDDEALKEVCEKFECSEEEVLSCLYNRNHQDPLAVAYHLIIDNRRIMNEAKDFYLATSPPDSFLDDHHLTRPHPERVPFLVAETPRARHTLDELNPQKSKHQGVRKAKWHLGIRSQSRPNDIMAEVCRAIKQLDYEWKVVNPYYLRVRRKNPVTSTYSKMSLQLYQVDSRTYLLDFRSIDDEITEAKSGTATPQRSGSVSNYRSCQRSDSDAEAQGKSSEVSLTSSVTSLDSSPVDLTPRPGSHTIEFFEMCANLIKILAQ
UniProt Q14694: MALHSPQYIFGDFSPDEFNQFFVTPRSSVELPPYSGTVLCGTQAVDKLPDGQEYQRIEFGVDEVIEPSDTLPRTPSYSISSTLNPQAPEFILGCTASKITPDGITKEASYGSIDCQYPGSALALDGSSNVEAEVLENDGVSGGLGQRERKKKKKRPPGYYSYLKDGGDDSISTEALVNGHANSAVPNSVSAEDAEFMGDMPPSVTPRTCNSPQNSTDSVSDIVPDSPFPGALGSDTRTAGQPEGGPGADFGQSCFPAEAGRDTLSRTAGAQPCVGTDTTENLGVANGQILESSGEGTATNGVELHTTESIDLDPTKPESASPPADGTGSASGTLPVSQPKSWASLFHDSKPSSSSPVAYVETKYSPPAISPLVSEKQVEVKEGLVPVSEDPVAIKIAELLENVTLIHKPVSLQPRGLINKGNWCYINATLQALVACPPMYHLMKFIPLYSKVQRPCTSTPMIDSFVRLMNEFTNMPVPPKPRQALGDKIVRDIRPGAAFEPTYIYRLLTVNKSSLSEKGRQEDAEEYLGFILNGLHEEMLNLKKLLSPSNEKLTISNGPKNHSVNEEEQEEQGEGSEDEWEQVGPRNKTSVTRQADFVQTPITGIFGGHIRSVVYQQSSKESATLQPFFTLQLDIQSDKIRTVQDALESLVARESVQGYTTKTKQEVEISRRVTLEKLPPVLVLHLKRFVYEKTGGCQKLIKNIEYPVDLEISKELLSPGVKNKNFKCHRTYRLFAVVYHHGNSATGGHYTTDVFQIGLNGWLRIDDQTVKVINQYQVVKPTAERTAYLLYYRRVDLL

How the values were obtained:
[1] = biological target: AMPKα2 (in HCT116 cell lysates) (human) (UniProt P54646); assay: co-immunoprecipitation from HCT116 lysates with anti-USP10 or anti-AMPKα2 (FIGS. 3B, 3D)
[2] = biological target: AMPKα2 (in HCT116 cell lysates) (human) (UniProt P54646); assay: co-immunoprecipitation from HCT116 lysates (FIGS. 3B, 3D)
[3] = biological target: AMPKα1 (in HCT116 cell lysates) (human) (UniProt Q13131); assay: co-immunoprecipitation from HCT116 lysates (FIGS. 3B, 3C)
[4] = biological target: AMPKα1 (in HCT116 cell lysates) (human) (UniProt Q13131); assay: co-immunoprecipitation from HCT116 lysates with anti-USP10 or anti-AMPKα1 (FIGS. 3B, 3C)

binding [1]: binds
binding [2]: binds
binding [3]: binds
binding [4]: binds
Substance: USP10 (in cell lysates, co-immunoprecipitation) (from UniProt Q14694 2-798) (enzyme)
